For 17 compounds, AC50 results are on record in PubChem BioAssay AID493014 (National Center for Advancing Translational Sciences (NCATS), 2011).

The list shows a part of the results. Shown are side measurements of this screen, not its main read-out; they come without a call. The list favours compounds with an active or inconclusive main result. Potencies come from curve fits of mixed quality, noted in brackets.

The nature of the test: qHTS Assay to Find Inhibitors of Chronic Active B-Cell Receptor Signaling. As to conditions: ABC-DLBCL IkBa-CBG/CBR reporter, luminescence ratio (green luciferase fused to IkBa over red control in TMD8 lymphoma cells), 4 h. In short, it runs like this:
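TMD8 human ABC-DLBCL cells with doxycycline-inducible IκBα–green luciferase fusion and unfused red luciferase, in 0.5% FBS medium; compounds up to 46 uM, 4 h at 37C. Green/red luminescence ratio, filter-overlap corrected, fitted to concentration-response curves.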

[1] abbreviates: measured here: CBR red luminescence, cell number.
The mark [2] stands for this setting: measured here: IkBa-CBG green luminescence.

Turning to `O=C(Nc1ccc2c(c1)OCCO2)NC1(C(F)(F)F)Oc2ccccc2O1`, under setting [1], the AC50 was 29.1 µM [falling, single point].

`CCn1cc(C(C)NC(=O)COc2ccc(Cl)cc2C)c(C)n1` (stereo not drawn): under setting [1], the half-maximal activity concentration (AC50) was 29.1 µM [rising, single point].

With `COc1ccccc1NC(=O)CN1C(=O)CSC(C)C1=O` (stereo not drawn), the AC50 under setting [1] was 29.1 µM [falling, single point].

For `CCOC(=O)/C(=C\c1cccc(O)c1)c1nc2sc(C)c(C)c2c(=O)[nH]1`, the AC50 under setting [1] was 18.4 µM [falling, partial curve].

Take `COc1cc(OC)cc(-n2nnnc2SCC(=O)NCCc2ccc(OC)c(OC)c2)c1`: the AC50 under setting [1] is 22.4 µM [rising, single point].

For the compound `O=C(CSc1cccs1)Nc1ccc2ccccc2c1`, the concentration at half-maximal activity (AC50) under setting [1] is 12.6 µM [falling, single point].

As to `COc1ccc(N=C(c2ccccc2)c2c(C)[nH]n(-c3ccccc3)c2=O)c(OC)c1`, the AC50 under setting [1] is 0.708 µM [rising, partial curve, poor fit].

As for `N#CCSc1nc(-c2ccccc2)nc2ccccc12`, the AC50 under setting [1] is 20 µM [falling, single point].

On to `O=C(CC(Nc1cccc(Cl)c1Cl)C(=O)O)c1ccccc1` (stereo not drawn), for which the half-maximal activity concentration (AC50) was 25.1 µM [falling, single point] under setting [1] and 12.6 µM [rising, partial curve, poor fit] under setting [2].

With `Cc1ccc2[nH]c(C(=O)O)c(NC(=O)CN3CCN(c4cccc(C)c4C)CC3)c2c1`, the concentration at half-maximal activity (AC50) under setting [1] is 1.26 µM [rising, partial curve].

In the case of `CCN(CC)C(=O)CC(c1ccc(F)cc1)c1ccc(OC(C)C)cc1` (stereo not drawn), under setting [1], the AC50 is 25.9 µM [falling, partial curve, poor fit].

`CCOc1ccc2nc(SCC(=O)Nc3ccc4c(c3)OCCO4)[nH]c2c1`: the AC50 under setting [1] is 18.4 µM [falling, partial curve, poor fit].

`Cc1ccc(-c2nnn(CC(=O)N(CC3CCCO3)C(C(=O)NC3CCCCC3)c3ccc(F)cc3)n2)o1` (stereo not drawn): under setting [1], the AC50 is 23.1 µM [falling, single point].

Regarding `CC1CCC(C(=O)c2c(O)c3ccccc3oc2=O)CC1` (stereo not drawn), the AC50 under setting [1] is 11.6 µM [falling, partial curve, poor fit].

`COC(=O)Nc1ccc(S(=O)(=O)NCc2ccccn2)cc1`: the concentration at half-maximal activity (AC50) under setting [1] was 6.31 µM [falling, single point].

In the case of `Cc1ccccc1NC(=O)CSc1nc2ccccc2c(=O)n1C`, the AC50 under setting [1] was 10 µM [falling, partial curve].

Turning to `CCOC(=O)C1CCN(c2nc3c(C)cccn3c(=O)c2/C=C(\C#N)S(=O)(=O)c2ccccc2)CC1`, the concentration at half-maximal activity (AC50) under setting [2] was 12.6 µM [rising, partial curve, poor fit].

One may read the AC50 as the midpoint of the concentration-response curve, whichever way the signal moves.
